Test results taken from the supplement of paper PMC10849652.
The other results are listed elsewhere or left out.

Chains of the proteins cited; added tags and fusions are not shown. Lines headed by an entry give the natural chain unless they say otherwise; changes in a name come on top.
UniProt Q5EBL4: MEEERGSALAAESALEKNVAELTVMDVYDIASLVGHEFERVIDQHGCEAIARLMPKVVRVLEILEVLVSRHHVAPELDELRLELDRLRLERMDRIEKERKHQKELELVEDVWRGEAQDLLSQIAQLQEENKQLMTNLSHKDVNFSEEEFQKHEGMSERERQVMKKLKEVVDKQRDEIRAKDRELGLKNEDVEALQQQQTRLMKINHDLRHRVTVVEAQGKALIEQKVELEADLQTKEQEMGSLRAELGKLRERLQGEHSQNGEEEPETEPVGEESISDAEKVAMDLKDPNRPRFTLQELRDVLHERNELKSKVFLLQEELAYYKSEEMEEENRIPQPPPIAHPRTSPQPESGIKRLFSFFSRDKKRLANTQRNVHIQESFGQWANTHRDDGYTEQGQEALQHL
UniProt O43353, whole entry, looked up: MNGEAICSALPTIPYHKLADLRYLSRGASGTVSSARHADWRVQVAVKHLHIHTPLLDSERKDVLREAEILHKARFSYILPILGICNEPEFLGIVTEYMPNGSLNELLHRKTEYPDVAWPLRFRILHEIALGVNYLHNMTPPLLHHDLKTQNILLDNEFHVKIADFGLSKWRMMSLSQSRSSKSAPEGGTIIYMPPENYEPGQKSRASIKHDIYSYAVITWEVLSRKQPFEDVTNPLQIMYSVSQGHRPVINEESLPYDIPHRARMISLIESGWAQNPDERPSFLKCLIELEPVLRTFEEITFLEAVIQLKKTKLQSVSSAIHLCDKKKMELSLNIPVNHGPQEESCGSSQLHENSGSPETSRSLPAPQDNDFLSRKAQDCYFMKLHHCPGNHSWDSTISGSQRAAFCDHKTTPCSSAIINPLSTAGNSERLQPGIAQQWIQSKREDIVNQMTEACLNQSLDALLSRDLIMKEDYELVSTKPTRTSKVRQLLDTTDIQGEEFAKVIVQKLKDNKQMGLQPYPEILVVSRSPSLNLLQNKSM
UniProt Q8WVD5: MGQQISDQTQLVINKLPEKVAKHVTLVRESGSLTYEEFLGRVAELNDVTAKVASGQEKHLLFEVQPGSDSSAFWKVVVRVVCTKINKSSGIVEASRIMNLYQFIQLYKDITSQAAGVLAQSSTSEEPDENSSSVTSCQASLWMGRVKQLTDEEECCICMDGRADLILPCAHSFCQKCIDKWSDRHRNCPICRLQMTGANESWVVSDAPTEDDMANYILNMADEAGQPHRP
UniProt Q9NTX7: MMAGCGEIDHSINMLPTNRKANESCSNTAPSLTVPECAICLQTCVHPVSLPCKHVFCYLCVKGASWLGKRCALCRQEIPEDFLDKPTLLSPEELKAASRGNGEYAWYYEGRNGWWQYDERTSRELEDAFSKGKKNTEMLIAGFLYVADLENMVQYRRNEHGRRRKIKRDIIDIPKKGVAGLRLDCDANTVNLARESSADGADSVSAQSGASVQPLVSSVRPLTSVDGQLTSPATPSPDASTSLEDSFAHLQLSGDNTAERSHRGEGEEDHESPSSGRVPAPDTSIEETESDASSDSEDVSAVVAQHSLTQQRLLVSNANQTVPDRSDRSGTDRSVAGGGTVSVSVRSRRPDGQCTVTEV
UniProt Q06587: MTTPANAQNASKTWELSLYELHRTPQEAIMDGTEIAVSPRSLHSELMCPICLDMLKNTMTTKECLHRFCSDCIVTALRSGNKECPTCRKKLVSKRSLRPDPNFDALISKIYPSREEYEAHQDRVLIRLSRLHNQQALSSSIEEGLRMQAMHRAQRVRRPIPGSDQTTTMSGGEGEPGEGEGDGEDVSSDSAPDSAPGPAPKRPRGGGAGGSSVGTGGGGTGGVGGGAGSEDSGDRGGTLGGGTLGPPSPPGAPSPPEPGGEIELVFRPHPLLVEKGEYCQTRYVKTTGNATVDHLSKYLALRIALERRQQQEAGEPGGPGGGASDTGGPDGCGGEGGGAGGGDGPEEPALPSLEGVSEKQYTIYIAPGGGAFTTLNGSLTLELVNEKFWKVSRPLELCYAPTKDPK
UniProt P13489: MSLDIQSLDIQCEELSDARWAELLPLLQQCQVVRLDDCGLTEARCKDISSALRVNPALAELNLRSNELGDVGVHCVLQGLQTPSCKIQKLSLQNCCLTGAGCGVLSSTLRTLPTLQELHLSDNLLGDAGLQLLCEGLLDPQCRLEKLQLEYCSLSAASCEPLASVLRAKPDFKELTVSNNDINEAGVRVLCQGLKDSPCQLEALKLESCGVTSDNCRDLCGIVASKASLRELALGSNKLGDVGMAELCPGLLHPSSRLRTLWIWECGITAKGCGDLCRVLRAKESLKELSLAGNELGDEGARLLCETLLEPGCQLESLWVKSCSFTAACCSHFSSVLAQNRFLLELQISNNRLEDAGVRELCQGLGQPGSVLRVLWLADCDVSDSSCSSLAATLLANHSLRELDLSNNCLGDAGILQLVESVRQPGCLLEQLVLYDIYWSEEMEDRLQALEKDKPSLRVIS
UniProt Q9H4A4: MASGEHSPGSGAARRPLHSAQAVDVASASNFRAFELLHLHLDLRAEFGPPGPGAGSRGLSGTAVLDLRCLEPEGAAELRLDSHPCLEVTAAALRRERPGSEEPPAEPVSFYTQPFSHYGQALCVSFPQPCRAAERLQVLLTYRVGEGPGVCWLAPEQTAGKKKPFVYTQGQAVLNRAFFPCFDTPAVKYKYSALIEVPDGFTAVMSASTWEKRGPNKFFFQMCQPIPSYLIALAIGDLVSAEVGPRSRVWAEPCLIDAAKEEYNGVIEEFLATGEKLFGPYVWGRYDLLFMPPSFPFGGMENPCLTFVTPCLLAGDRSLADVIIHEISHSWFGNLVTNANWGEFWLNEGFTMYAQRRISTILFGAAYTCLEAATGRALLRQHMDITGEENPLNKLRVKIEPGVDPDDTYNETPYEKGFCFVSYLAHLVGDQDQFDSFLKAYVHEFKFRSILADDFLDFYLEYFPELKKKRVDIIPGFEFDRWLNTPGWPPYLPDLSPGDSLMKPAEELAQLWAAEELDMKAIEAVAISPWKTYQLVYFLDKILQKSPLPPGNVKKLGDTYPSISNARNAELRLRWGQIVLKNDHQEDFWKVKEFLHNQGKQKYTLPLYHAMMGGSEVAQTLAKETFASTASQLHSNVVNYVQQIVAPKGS
UniProt Q13464: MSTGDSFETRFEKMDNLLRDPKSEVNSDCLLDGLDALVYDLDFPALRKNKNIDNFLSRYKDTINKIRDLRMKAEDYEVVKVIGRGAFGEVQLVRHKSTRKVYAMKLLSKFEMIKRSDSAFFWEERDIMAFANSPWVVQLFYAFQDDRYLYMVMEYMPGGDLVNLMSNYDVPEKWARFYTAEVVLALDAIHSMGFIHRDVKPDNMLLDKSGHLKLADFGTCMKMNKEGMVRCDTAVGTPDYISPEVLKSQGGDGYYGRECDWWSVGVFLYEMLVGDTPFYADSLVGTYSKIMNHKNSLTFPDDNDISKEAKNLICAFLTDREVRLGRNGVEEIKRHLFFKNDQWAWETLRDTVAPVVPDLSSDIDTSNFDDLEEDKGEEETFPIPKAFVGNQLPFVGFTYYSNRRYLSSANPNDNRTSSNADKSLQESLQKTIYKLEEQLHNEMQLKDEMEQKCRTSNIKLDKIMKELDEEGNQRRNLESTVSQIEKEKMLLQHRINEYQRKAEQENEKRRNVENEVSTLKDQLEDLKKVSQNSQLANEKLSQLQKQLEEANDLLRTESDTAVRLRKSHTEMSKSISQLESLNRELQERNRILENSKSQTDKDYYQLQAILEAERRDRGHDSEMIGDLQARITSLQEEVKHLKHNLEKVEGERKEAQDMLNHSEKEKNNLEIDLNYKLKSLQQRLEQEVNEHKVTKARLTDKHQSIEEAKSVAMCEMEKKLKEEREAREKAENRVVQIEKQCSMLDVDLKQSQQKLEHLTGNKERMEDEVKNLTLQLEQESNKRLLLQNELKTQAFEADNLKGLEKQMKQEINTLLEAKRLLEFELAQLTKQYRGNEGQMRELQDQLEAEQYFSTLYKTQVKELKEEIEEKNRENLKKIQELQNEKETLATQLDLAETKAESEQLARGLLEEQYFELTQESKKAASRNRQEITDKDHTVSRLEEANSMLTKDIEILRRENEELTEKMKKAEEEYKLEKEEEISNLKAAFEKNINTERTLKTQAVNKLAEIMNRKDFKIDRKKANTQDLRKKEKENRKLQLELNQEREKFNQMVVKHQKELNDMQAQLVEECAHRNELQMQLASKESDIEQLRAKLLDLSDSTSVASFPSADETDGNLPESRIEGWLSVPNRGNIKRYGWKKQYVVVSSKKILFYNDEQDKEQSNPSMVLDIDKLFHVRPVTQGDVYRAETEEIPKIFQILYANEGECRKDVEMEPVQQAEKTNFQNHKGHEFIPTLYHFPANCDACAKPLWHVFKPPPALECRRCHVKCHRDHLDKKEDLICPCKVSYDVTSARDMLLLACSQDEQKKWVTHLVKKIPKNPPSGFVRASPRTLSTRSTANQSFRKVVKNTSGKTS
UniProt Q9H871: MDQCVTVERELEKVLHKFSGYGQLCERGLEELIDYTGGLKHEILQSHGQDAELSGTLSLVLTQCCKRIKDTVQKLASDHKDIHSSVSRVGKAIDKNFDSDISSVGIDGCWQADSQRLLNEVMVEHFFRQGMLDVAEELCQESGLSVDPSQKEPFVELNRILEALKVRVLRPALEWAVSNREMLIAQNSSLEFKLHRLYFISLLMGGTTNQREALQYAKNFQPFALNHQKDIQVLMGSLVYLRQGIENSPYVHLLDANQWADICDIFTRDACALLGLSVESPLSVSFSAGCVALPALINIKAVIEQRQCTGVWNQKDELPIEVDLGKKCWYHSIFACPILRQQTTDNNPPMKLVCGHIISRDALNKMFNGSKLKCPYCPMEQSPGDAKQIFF
UniProt Q6ZS17: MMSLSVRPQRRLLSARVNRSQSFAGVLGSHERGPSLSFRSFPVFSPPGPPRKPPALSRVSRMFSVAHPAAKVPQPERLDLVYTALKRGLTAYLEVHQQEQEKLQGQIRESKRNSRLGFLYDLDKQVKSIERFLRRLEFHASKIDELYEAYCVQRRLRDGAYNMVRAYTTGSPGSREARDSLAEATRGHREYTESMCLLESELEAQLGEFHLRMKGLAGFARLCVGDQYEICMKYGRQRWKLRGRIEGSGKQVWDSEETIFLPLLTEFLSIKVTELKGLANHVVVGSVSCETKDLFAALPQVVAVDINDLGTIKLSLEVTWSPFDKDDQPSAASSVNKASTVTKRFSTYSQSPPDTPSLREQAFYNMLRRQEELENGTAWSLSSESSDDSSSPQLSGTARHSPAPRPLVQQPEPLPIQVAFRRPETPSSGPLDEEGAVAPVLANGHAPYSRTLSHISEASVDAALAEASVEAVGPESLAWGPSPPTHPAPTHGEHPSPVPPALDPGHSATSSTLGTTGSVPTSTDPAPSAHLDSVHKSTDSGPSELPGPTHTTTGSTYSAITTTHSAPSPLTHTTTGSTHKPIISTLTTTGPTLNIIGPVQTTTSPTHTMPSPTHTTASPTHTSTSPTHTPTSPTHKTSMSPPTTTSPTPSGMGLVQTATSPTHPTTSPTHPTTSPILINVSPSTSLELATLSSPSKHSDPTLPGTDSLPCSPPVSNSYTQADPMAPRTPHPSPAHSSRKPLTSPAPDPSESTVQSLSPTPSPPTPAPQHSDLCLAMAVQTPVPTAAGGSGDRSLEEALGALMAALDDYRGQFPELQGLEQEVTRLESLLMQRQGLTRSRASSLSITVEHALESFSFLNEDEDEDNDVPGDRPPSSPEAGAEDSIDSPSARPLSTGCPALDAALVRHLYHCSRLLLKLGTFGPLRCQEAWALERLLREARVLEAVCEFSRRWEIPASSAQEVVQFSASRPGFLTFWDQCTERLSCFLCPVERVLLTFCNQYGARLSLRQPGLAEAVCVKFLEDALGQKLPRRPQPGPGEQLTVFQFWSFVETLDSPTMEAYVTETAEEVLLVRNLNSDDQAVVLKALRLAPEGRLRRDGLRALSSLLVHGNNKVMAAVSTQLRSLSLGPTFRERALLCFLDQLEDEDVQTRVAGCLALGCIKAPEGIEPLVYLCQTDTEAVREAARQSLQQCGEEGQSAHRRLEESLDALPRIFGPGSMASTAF

Legend:
Assay in all cases: log2 fold change, soluble protein after heating vs DMSO (PISA); higher = thermal stabilisation; K562 lysate, 10 uM; active = over 0.2 and 3.5 SD of the protein, either way, in both replicates (recomputed)
[1] = compound: CCCS(=O)(=O)Nc1ccc(F)c(C(=O)c2c[nH]c3ncc(-c4ccc(Cl)cc4)cc23)c1F [vemurafenib]
Method in brief: (§1)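 Dounce homogenisation of K562 pellets in PBS pH 7.4 with 1 mM MgCl2 produced a crude extract, used at 1 mg/mL protein. Exposure to 10 μM compound lasted 30 min, and aliquots were then heated for 3 min across 48°C-58°C, pooled and brought to 0.5% NP-40 at 4°C. The supernatant after 21,000xg for 90 min was quantified by TMTpro 16plex LC-MS/MS with channel sums equalised. Duplicate values are given as log-two fold change in thermal stability relative to solvent controls.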

[2] = compound: CCCS(=O)(=O)Nc1ccc(F)c(C(=O)c2c[nH]c3ncc(Cl)cc23)c1F
Method in brief: as §1

[3] = compound: CCN(CCCOc1ccc2c(Nc3cc(CC(=O)Nc4cccc(F)c4)[nH]n3)ncnc2c1)CCOP(=O)(O)O [barasertib]
Method in brief: as §1

[4] = compound: CC[C@@H]1C(=O)N(C)c2cnc(Nc3ccc(C(=O)NC4CCN(C)CC4)cc3OC)nc2N1C1CCCC1
Method in brief: as §1

[5] = compound: CC[C@@H]1C(=O)N(C)c2cnc(Nc3ccc(C(=O)N[C@H]4CC[C@H](N5CCN(CC6CC6)CC5)CC4)cc3OC)nc2N1C(C)C [volasertib]
Method in brief: as §1

[6] = compound: CCn1c(C(=O)N(C2CC2)C2CC2)cc2c3c(ncn3C)c(Nc3cc(C)n(C)n3)nc21
Method in brief: as §1

[7] = compound: CCn1cc(-c2ccnc3[nH]c(-c4cccc(CN(C)C)c4)cc23)c(-c2ccc(NC(=O)N(C)C)cc2)n1
Method in brief: as §1

[8] = compound: CN1CCC(CNc2ccc3ncc(-c4cccc(OC(F)(F)F)c4)n3n2)CC1
Method in brief: as §1

[9] = compound: CN1CCN(CCOc2cc(OC3CCOCC3)c3c(Nc4c(Cl)ccc5c4OCO5)ncnc3c2)CC1 [saracatinib]
Method in brief: as §1

[10] = compound: CN1CCN(c2nc(C3=C(c4c[nH]c5ccccc45)C(=O)NC3=O)c3ccccc3n2)CC1 [sotrastaurin]
Method in brief: as §1

[11] = compound: CN1CC[C@H](c2c(O)cc(O)c3c(=O)cc(-c4ccccc4Cl)oc23)[C@H](O)C1 [alvocidib]
Method in brief: as §1

[12] = compound: CN1CCc2c(c3ccccc3n2Cc2ccc(C(=O)NO)cc2)C1 [Tubastatin A]
Method in brief: as §1

[13] = compound: CNC(=O)C1=CC=CC=C1NC2=NC(=NC=C2Cl)NC3=C(C=C(C=C3)N4CCOCC4)OC
Method in brief: as §1

[14] = compound: CNC(=O)c1ccc(Nc2ncc(C(F)(F)F)c(NCc3nccnc3N(C)S(C)(=O)=O)n2)cc1 [defactinib]
Method in brief: as §1

[15] = compound: CNc1nc(-c2ccc3c(N)n[nH]c3c2)cc(N2C[C@@H](C(=O)NC3CCCCC3)CC[C@H]2C)n1
Method in brief: as §1

[16] = compound: COC(=O)N[C@@H](C)CNc1nccc(-c2cn(C(C)C)nc2-c2cc(Cl)cc(NS(C)(=O)=O)c2F)n1 [encorafenib]
Method in brief: as §1

[17] = compound: COC(=O)[C@H](CCSC)NC(=O)C1=C(C=C(C=C1)NC[C@H](CS)N)C2=CC=CC=C2
Method in brief: as §1

[18] = compound: COc1cc(Nc2ncc3c(n2)-c2ccc(Cl)cc2C(c2c(F)cccc2OC)=NC3)ccc1C(=O)O [alisertib]
Method in brief: as §1

[19] = compound: COc1cc2nc(-c3cc(F)ccc3O)nc(N[C@@H]3CNC[C@H]3C(C)(C)O)c2cc1OC
Method in brief: as §1

[20] = compound: COc1cc2ncnc(Nc3ccc(F)c(Cl)c3)c2cc1OCCCN1CCOCC1 [gefitinib]
Method in brief: as §1

Measured: log2 fold change

RPL36 (UniProt Q9Y3U8)
inactive: [1] 0.018 | [2] 0.011 | [3] -0.054 | [4] 0.008 | [5] 0.019 | [6] -0.006 | [7] -0.292 | [8] 0.014 | [9] -0.005 | [10] -0.005 | [11] -0.023 | [12] 0.002 | [13] -0.02 | [14] 0.004 | [15] 0.055 | [16] 0.01 | [17] -0.047 | [18] 0.023 | [19] -0.001 | [20] -0.013

RILPL1 (UniProt Q5EBL4)
inactive: [1] 0.001 | [2] 0.024 | [3] 0.004 | [4] 0.032 | [5] -0.002 | [6] 0.033 | [7] 0.011 | [8] 0.057 | [9] -0.015 | [10] 0.014 | [11] 0.003 | [12] 0.022 | [13] 0.038 | [14] -0.046 | [15] 0.019 | [16] 0.029 | [17] -0.039 | [18] 0.028 | [19] -0.001 | [20] 0.018

RIPK2 (UniProt O43353)
inactive: [1] 0.093 | [2] 0.078 | [3] -0.007 | [4] 0.037 | [5] 0.025 | [6] -0.006 | [7] 0.169 | [8] -0.061 | [9] 0.067 | [10] -0.012 | [11] 0.061 | [12] -0.025 | [13] 0.042 | [14] -0.019 | [15] -0.026 | [16] 0.139 | [17] -0.003 | [18] -0.021 | [19] -0.009

RPL10 (UniProt P27635)
inactive: [1] -0.074 | [2] 0.02 | [3] -0.032 | [4] -0.065 | [5] -0.005 | [6] 0.016 | [7] 0.146 | [8] -0.124 | [9] 0.006 | [10] 0.008 | [11] 0.062 | [12] 0.003 | [13] 0.004 | [14] 0.03 | [15] 0.008 | [16] 0.053 | [17] 0.004 | [18] 0.002 | [19] -0.008 | [20] -0.003

RNF141 (UniProt Q8WVD5)
inactive: [1] -0.051 | [2] 0 | [3] -0.01 | [4] 0.084 | [5] 0.035 | [6] -0.009 | [7] 0.001 | [8] 0.026 | [9] 0.007 | [10] 0.158 | [11] -0.027 | [12] -0.082 | [13] 0.067 | [14] 0.004 | [15] 0.07 | [16] 0.145 | [17] -0.146 | [18] -0.028 | [19] 0.02 | [20] 0.052

RNF146 (UniProt Q9NTX7)
inactive: [1] 0.015 | [2] 0.025 | [3] -0.001 | [4] 0.1 | [5] 0.013 | [6] -0.023 | [7] -0.029 | [8] 0.022 | [9] -0.02 | [10] -0.005 | [11] 0.047 | [12] -0.005 | [13] 0.025 | [14] 0.064 | [15] 0.07 | [16] -0.037 | [17] -0.099 | [18] 0.038 | [19] -0.001 | [20] -0.198

RING1 (UniProt Q06587)
inactive: [1] 0.027 | [2] -0.005 | [3] 0.013 | [4] -0.031 | [5] -0.024 | [6] -0.039 | [7] -0.077 | [8] 0.08 | [9] 0.02 | [10] -0.003 | [11] 0.021 | [12] -0.057 | [13] -0.013 | [14] -0.008 | [15] 0.076 | [16] 0.01 | [17] -0.026 | [18] 0.012 | [19] 0.001 | [20] -0.066

RPL26 (UniProt P61254)
inactive: [1] -0.101 | [2] 0.008 | [3] 0.067 | [4] -0.019 | [5] -0.064 | [6] 0.164 | [7] 0.342 | [8] -0.435 | [9] -0.12 | [10] -0.06 | [11] 0.22 | [12] 0.067 | [13] -0.001 | [14] 0.08 | [15] 0.144 | [16] -0.051 | [17] 0.096 | [18] -0.218 | [19] -0.04 | [20] -0.292

RPL31 (UniProt P62899)
inactive: [1] 0.01 | [2] 0.004 | [3] 0.004 | [4] 0.006 | [5] -0.005 | [6] -0.013 | [7] -0.043 | [8] -0.005 | [9] 0.024 | [10] 0.014 | [11] -0.013 | [12] 0.032 | [13] -0.042 | [14] -0.024 | [15] 0.044 | [16] -0.016 | [17] 0.035 | [18] 0.033 | [19] -0.015 | [20] -0.035

RNH1 (UniProt P13489)
inactive: [1] 0.012 | [2] -0.012 | [3] 0 | [4] 0.007 | [5] -0.017 | [6] -0.026 | [7] 0.043 | [8] 0.083 | [9] -0.04 | [10] -0.079 | [11] -0.072 | [12] 0.037 | [13] -0.033 | [14] -0.026 | [15] 0.002 | [16] -0.009 | [17] 0 | [18] 0.006 | [19] 0.013 | [20] -0.09

RNPEP (UniProt Q9H4A4)
inactive: [1] -0.006 | [2] 0.037 | [3] -0.037 | [4] 0.022 | [5] -0.012 | [6] 0.006 | [7] -0.034 | [8] 0.046 | [9] -0.01 | [10] 0.006 | [11] -0.019 | [12] 0.013 | [13] -0.003 | [14] -0.013 | [15] -0.002 | [16] -0.006 | [17] -0.027 | [18] 0 | [19] -0.015 | [20] -0.027

ROCK1 (UniProt Q13464)
inactive: [1] 0.014 | [2] 0.004 | [3] 0.004 | [4] 0.018 | [5] -0.045 | [6] 0.001 | [7] -0.017 | [8] 0.025 | [9] -0.017 | [10] 0.015 | [11] 0.004 | [12] 0.013 | [13] -0.029 | [14] -0.02 | [15] 0.039 | [16] -0.004 | [17] -0.019 | [18] -0.045 | [19] 0.022 | [20] -0.004

2 successive entries from above, for reference:
RPL26 (UniProt P61254)
inactive: [1] -0.101 | [2] 0.008 | [3] 0.067 | [4] -0.019 | [5] -0.064 | [6] 0.164 | [7] 0.342 | [8] -0.435 | [9] -0.12 | [10] -0.06 | [11] 0.22 | [12] 0.067 | [13] -0.001 | [14] 0.08 | [15] 0.144 | [16] -0.051 | [17] 0.096 | [18] -0.218 | [19] -0.04 | [20] -0.292

RPL31 (UniProt P62899)
inactive: [1] 0.01 | [2] 0.004 | [3] 0.004 | [4] 0.006 | [5] -0.005 | [6] -0.013 | [7] -0.043 | [8] -0.005 | [9] 0.024 | [10] 0.014 | [11] -0.013 | [12] 0.032 | [13] -0.042 | [14] -0.024 | [15] 0.044 | [16] -0.016 | [17] 0.035 | [18] 0.033 | [19] -0.015 | [20] -0.035

(further entries)

RMND5A (UniProt Q9H871)
inactive: [1] -0.036 | [2] 0.02 | [3] 0.05 | [4] 0.013 | [5] -0.003 | [6] -0.007 | [7] -0.11 | [8] 0.059 | [9] 0 | [10] 0.034 | [11] -0.022 | [12] -0.038 | [13] 0.034 | [14] 0.042 | [15] 0.003 | [16] 0.054 | [17] 0.015 | [18] -0.008 | [19] 0.007 | [20] -0.001

RIF1 (UniProt Q5UIP0)
inactive: [1] 0.013 | [2] 0.02 | [3] 0.026 | [4] -0.027 | [5] -0.038 | [6] -0.013 | [7] -0.057 | [8] -0.002 | [9] 0.018 | [10] 0.007 | [11] -0.01 | [12] -0.042 | [13] 0.039 | [14] -0.007 | [15] 0.015 | [16] 0.008 | [17] 0.053 | [18] -0.014 | [19] 0.004 | [20] 0

RPAP3 (UniProt Q9H6T3)
inactive: [1] 0 | [2] 0.011 | [3] 0.009 | [4] -0.015 | [5] -0.046 | [6] 0.009 | [7] -0.016 | [8] -0.06 | [9] 0.013 | [10] 0.008 | [11] 0.02 | [12] -0.046 | [13] 0.036 | [14] -0.01 | [15] -0.031 | [16] 0.011 | [17] 0.025 | [18] 0.026 | [19] 0.004 | [20] -0.011

RIPOR1 isoform 4 (UniProt Q6ZS17)
inactive: [1] 0.038 | [2] -0.03 | [3] 0.057 | [4] 0.102 | [5] -0.089 | [6] 0.03 | [7] 0.005 | [8] -0.151 | [9] 0.06 | [10] 0.132 | [11] 0.042 | [12] -0.013 | [13] 0.029 | [14] -0.099 | [15] -0.006 | [16] 0.039 | [17] 0.098 | [18] 0.019 | [19] 0.202 | [20] 0.032
